From the supplement of paper PMC12823440, “Inhibitors supercharge kinase turnover through native proteolytic circuits” (Nature, 2025)
Structures can show the parent of a compound that is named as a salt. The list shows a part of the results. The calls rarely recur for the same compound in another form.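 Kinases were expressed as nanoluciferase fusions in K562 cells and luminescence was read every 4 h between 2 and 18 h as percent of control, DMSO set to 100% and a positive control to 0%. A time point counts as decreased when the signal drops significantly (2 sigma). The hit call is the authors' own, does not follow from the count of time points alone, and its rule is not shown.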

Protein sequences, listed by entry. Tags and fused reporters are not part of them. Lines headed by an entry give the natural chain unless they say otherwise; changes in a name come on top.
UniProt Q9UQM7, whole entry: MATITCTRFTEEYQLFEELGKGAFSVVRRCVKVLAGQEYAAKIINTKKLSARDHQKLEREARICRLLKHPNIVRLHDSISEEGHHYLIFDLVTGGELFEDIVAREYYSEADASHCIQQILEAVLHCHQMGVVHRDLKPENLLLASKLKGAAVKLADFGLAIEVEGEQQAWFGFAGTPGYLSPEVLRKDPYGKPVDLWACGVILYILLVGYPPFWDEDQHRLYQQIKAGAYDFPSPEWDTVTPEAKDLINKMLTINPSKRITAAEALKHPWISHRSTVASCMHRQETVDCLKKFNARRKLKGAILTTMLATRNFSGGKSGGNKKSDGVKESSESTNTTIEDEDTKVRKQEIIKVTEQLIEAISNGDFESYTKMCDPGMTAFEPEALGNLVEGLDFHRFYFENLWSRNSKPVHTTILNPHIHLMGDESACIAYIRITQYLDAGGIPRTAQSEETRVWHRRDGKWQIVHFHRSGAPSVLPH
UniProt Q13555: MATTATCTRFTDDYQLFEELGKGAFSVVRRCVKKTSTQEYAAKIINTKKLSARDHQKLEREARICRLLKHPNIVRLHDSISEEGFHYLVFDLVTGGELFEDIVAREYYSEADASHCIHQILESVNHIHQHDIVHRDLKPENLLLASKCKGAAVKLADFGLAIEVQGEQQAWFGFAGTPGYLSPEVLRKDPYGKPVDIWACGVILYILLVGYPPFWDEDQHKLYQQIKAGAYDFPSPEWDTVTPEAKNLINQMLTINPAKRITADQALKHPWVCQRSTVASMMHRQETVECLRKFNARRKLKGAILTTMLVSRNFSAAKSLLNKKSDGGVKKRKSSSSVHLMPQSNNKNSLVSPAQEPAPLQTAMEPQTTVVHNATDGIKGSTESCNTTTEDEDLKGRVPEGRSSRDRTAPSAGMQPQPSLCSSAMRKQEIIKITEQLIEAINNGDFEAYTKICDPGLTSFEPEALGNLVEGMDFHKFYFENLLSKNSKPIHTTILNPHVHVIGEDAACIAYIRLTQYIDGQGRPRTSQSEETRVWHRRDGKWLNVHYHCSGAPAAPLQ
UniProt Q15131: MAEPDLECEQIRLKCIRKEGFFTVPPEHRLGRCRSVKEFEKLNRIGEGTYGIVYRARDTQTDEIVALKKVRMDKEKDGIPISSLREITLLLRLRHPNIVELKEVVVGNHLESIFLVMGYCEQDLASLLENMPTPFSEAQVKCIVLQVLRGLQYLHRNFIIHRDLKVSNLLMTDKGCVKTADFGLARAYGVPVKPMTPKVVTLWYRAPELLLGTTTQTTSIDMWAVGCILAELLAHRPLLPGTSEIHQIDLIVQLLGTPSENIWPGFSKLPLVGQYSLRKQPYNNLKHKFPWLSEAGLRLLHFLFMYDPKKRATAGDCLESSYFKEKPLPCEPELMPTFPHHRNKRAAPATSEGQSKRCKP
UniProt Q00526: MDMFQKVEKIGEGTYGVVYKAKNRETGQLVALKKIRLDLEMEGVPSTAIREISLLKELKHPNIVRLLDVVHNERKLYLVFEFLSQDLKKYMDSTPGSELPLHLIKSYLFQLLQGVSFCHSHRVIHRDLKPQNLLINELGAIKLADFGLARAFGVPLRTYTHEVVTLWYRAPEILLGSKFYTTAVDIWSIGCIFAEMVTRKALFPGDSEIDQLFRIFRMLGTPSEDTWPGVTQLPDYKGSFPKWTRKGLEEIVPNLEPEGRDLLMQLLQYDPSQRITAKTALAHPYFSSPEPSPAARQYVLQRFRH
UniProt Q00535, whole entry, looked up: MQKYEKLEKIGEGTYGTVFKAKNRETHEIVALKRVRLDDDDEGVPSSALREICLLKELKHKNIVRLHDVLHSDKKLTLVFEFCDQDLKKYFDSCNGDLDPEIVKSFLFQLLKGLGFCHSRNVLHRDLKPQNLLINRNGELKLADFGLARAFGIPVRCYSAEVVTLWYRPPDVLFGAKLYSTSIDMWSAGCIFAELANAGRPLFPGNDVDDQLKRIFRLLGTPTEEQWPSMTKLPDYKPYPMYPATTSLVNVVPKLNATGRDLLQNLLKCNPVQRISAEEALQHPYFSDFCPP
UniProt Q00534, whole entry: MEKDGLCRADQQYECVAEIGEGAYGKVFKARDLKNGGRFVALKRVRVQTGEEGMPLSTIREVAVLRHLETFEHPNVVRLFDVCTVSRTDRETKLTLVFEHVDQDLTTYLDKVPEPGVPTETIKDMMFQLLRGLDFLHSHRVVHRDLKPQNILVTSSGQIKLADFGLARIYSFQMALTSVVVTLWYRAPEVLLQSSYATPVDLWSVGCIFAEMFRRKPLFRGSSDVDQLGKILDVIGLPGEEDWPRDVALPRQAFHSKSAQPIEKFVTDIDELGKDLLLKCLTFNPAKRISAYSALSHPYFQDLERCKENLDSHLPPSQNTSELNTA
UniProt O96017, whole entry: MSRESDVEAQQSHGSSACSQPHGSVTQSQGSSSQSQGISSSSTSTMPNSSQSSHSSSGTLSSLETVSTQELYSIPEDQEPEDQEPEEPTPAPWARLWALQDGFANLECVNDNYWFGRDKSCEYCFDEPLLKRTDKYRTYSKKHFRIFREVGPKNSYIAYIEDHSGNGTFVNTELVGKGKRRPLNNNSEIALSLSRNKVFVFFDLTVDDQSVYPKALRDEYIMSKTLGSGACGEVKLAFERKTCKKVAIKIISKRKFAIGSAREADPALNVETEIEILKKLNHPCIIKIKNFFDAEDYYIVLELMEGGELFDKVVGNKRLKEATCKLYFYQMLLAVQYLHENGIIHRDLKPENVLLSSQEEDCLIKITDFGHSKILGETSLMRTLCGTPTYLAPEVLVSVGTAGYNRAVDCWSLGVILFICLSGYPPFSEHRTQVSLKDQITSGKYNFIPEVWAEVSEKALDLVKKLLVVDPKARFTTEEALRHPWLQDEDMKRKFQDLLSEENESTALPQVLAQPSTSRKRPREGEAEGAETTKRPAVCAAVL
UniProt P07333, whole entry: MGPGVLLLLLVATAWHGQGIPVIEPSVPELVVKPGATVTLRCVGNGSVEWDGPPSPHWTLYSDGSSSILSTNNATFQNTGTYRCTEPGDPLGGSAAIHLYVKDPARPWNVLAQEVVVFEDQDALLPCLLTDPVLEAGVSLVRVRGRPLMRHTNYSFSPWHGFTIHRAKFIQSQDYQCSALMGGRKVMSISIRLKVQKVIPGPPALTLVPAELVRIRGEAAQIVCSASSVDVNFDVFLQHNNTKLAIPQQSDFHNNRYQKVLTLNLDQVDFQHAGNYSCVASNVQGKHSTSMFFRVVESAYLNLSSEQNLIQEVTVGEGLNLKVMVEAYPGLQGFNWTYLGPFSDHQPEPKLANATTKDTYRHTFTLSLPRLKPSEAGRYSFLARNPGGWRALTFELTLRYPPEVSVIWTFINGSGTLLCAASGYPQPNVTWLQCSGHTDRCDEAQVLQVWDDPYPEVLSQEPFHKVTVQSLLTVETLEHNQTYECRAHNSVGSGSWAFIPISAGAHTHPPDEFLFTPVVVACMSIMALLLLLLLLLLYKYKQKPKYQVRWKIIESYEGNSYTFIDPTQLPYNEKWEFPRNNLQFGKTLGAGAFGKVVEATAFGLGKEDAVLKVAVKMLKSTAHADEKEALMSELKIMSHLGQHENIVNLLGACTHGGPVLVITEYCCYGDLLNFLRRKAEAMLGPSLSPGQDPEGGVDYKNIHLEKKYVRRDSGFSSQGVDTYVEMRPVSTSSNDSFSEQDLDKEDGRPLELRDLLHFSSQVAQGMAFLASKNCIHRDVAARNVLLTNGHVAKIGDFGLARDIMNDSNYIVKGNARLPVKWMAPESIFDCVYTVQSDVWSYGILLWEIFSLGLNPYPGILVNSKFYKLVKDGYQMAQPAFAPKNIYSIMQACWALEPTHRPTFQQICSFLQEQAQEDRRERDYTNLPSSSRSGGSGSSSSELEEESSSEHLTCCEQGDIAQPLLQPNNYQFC
UniProt P41240: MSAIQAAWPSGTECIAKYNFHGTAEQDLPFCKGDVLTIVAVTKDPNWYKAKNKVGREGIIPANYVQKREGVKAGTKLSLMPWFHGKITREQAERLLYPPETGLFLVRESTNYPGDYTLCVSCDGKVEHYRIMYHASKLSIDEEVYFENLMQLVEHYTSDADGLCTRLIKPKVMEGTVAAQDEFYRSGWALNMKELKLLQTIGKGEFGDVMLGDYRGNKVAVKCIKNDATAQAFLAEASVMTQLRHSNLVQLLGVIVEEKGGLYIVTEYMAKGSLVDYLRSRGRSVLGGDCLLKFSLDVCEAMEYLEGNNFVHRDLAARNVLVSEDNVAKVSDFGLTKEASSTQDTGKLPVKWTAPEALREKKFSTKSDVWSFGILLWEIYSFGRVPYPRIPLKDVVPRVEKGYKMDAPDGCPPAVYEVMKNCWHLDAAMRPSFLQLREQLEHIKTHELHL

How the values were obtained:
Assay in all cases: number of time points (of 5) at which kinase-Nluc abundance scored as decreased, DMSO-normalised (count); higher = more persistent destabilization
Conditions in all cases: K562; 2-18 h
CAMK2A = CAMK2A (UniProt Q9UQM7)
CAMK2G = CAMK2G (UniProt Q13555)
CDK10 = CDK10 (UniProt Q15131)
CDK2 = CDK2 (UniProt P24941)
CDK3 = CDK3 (UniProt Q00526)
CDK5 = CDK5 (UniProt Q00535)
CDK6 = CDK6 (UniProt Q00534)
CHEK2 = CHEK2 (UniProt O96017)
CSF1R = CSF1R (UniProt P07333)
CSK = CSK (UniProt P41240)

Measured: number of time points

Cc1ccc(C(=O)Nc2sc(Nc3ccccc3)nc2C(N)=O)cc1 (10 µM)
0: all assays above

COc1cc2ncnc(-n3nc(-c4ccccn4)nc3N)c2cc1OC (10 µM)
0: all assays above

COc1cc2ncnc(Nc3ccc(F)c(Cl)c3)c2cc1NC(=O)/C=C/CN1CCCCC1 [Dacomitinib] (10 µM)
0: all assays above

COCCNc1cc(NC(=O)N2CCCc3cc(CN4CCN(C)CC4=O)c(C=O)nc32)ncc1C#N [Roblitinib] (10 µM)
0: all assays above

O=C(NCc1cccc(O)c1)Nc1nc(-c2ccncc2)cs1 (10 µM)
0: all assays above

O=[N+]([O-])c1ccc2c(c1)S(=O)(=O)C=C2 [Stattic] (2.5 µM)
0: all assays above

COc1ccc(N=Nc2c(N)n[nH]c2N)cc1 (10 µM)
0: all assays above

O=C(Nc1nc2ccc(NC(=O)C34CC5CC(CC(C5)C3)C4)cc2s1)c1ccccc1 (10 µM)
1: CSF1R
0: all other assays above

CC(=O)c1c(C)c2cnc(Nc3ccc(N4CCN(C(=O)CNc5cccc6c5C(=O)N(C5CCC(=O)NC5=O)C6=O)CC4)cn3)nc2n(C2CCCC2)c1=O (stereo not given) (10 µM)
4: CDK6
0: all other assays above

Cc1cc(-c2ccnc(Nc3cnn(C)c3)n2)ccc1CNC(=O)N1CC(OC(C)C)C1 (10 µM)
0: all assays above

CNC(=O)c1ccccc1Oc1nc(Nc2cc(OC)c(OC)c(OC)c2)ncc1Br (2.5 µM)
0: all assays above

Cn1cc(-c2cnc3cnn(S(=O)(=O)c4cnc5ccc(-c6cnn(C)c6)cn45)c3c2)cn1 [Glumetinib] (10 µM)
0: all assays above

O=C1NC(=O)/C(=C/c2ccc3nccc(-c4ccncc4)c3c2)S1 (10 µM)
0: all assays above

C=CC(=O)Nc1cc(Nc2nccc(-n3cc(CN(C)C)c(-c4ccccc4)n3)n2)c(OC)cc1N1CCOCC1 [Lazertinib] (10 µM)
0: all assays above

CC(=O)N1CCC(c2cc(-c3ccc(NC(=O)c4cccn(-c5ccc(F)cc5)c4=O)cc3F)c3c(N)ncnn23)CC1 (0.5 µM)
0: all assays above

C[C@@H]1CC(=O)c2c(ccc3c2C(=O)c2cccc(O)c2C3=O)C1 [Ochromycinone] (10 µM)
0: all assays above

COc1ccccc1C(=O)/C=C/c1ccccc1C(=O)O (10 µM)
0: all assays above

O=C(Nc1nc(=O)n(Cc2ccc(Cl)cc2)s1)c1ccc(Cl)cc1 (10 µM)
0: all assays above

Cc1ccc(NC(=O)c2ccc(CN(CCN(C)C)C(=O)c3cccnc3)cc2)cc1Nc1nccc(-c2cccnc2)n1 [PDGFRα kinase inhibitor 1] (10 µM)
0: all assays above

Cc1cnc(NC2CCOCC2)nc1-n1cnc(C(=O)N[C@H](CN)c2cc(F)cc(Cl)c2)c1 (10 µM)
0: all assays above

CN(C)S(=O)(=O)c1ccc2c(c1)/C(=C/c1cc3c([nH]1)CCCC3)C(=O)N2 (2.5 µM)
2: CAMK2A
0: all other assays above

CN1C(=O)[C@@H](NC(=O)c2n[nH]c(Cc3ccccc3)n2)COc2ccccc21 (10 µM)
0: all assays above

C=C[C@@](C)(/C=C/c1ccc(O)cc1)CCC=C(C)C [Bakuchiol] (10 µM)
0: all assays above

C=CC(=O)N1CCC[C@H](n2c(=O)n(-c3ccc(Oc4ccccc4)cc3)c3c(N)ncnc32)C1 [ONO-4059 (analog)] (10 µM)
0: all assays above

Cc1cc(Nc2nc(CC3(C(=O)O)CCN(C(=O)c4cccc(Cl)c4Cl)CC3)ccc2F)n[nH]1 (10 µM)
1: CHEK2
0: all other assays above

Cc1cccc(-c2[nH]c(C(C)(C)C)nc2-c2ccc3nccnc3c2)n1 (10 µM)
0: all assays above

Cn1cnc([N+](=O)[O-])c1C[N+](C)(C)C/C=C/C(=O)Nc1cc2c(Nc3ccc(Cl)c(Br)c3)ncnc2cn1 [Tarloxotinib (bromide)] (10 µM)
0: all assays above

COc1c(Nc2cc(C)[nH]n2)nc(Sc2ccc(S(=O)(=O)Cc3cccc([N+](=O)[O-])c3F)cc2F)nc1N1CCCCC1 [Centrinone-B] (2.5 µM)
2: CDK2
1: CDK6
0: all other assays above

C[C@@H]1O[C@@H](O[C@@H]2[C@@H](O)[C@H](OCCc3ccc(O)c(O)c3)O[C@H](CO)[C@H]2OC(=O)/C=C/c2ccc(O)c(O)c2)[C@H](O)[C@H](O)[C@H]1O [Verbascoside] (10 µM)
0: all assays above

Cn1cc(C2=C(c3cn(CCCSC(=N)N)c4ccccc34)C(=O)NC2=O)c2ccccc21 [Ro 31-8220 (mesylate)] (2.5 µM)
0: all assays above

CC(C)S(=O)(=O)c1ccc2nccc(Nc3ccc4scnc4c3)c2c1 (10 µM)
0: all assays above

CC(C)=CC(=O)O[C@H]1Cc2cc3ccc(=O)oc3cc2OC1(C)C [Decursin] (10 µM)
0: all assays above

O=C(Nc1cccc(C(F)(F)F)c1)c1cccc2cc(Oc3cc(CO)ncn3)ccc12 (10 µM)
0: all assays above

CC(C)(C)n1nc(Cc2ccccc2O)c2c(N)ncnc21 (10 µM)
1: CHEK2
0: all other assays above

Cc1ccc(-c2csc3ncnc(SCCC(=O)O)c23)cc1 (10 µM)
0: all assays above

CNC(=O)c1cc2c(Oc3ccc(NC(=S)NC(=O)Cc4ccccc4)cc3F)ccnc2cc1OC [TAS-115 mesylate] (10 µM)
2: CAMK2A
3: CDK10
1: CDK3
0: all other assays above

COc1ccc(/C=C/C(=O)C2(C(=O)/C=C/c3ccc(OC)c(OC)c3)CCCCC2)cc1OC (2.5 µM)
0: all assays above

Entries from the list above that have an aryl thioether with sulfur outside any ring, in the order listed:
COc1c(Nc2cc(C)[nH]n2)nc(Sc2ccc(S(=O)(=O)Cc3cccc([N+](=O)[O-])c3F)cc2F)nc1N1CCCCC1 [Centrinone-B] (2.5 µM)
2: CDK2
1: CDK6
0: all other assays above

Cc1ccc(-c2csc3ncnc(SCCC(=O)O)c23)cc1 (10 µM)
0: all assays above

The listing continues:

O=[N+]([O-])c1ccc(Nc2nc(N3CCOCC3)nc(N3CCOCC3)n2)cc1 (10 µM)
0: all assays above
